# Reference: patent US8012929B2, “Peptides directed for diagnosis and treatment of amyloid-associated diseases” (Tel Aviv University Future Technology Development L.P., priority 2002, dated 2011)
# Amino acid sequences for entries named in this document (tags omitted). Residues count along the entry.
# UniProt P05067, 672-711: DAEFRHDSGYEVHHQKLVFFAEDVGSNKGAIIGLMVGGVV
# “Also recorded” adds a separate entry of the source. Not every detail of the peptide structures is certain; ends, links or a residue may be inferred. Square brackets hold non-standard residues; d marks the D form. Peptide text beside a SMILES is read from it. Aib = CC(C)(N)C(=O)O
# Experiments:
# [1] = tested on: hAPP(751) transgenic mice; experiment: Plaque load in cortex and hippocampus of hAPP transgenic mice; format: in vivo; conditions: vs vehicle
# [2] = tested on: hAPP(751) transgenic mice; experiment: Morris water maze test in hAPP(751) transgenic mice; format: in vivo; conditions: i.p. 1 mg per animal, 4 months treatment, vs vehicle
# [3] = tested on: hAPP(751) transgenic mice; experiment: β-amyloid concentrations in brain homogenates of hAPP transgenic mice; format: in vivo; conditions: 4 months treatment, vs vehicle
# [4] = tested on: receptors for adenosine, adrenergic, calcium channel L-type, dopamine, GABA, muscarinic, nicotinic, acetylcholine and potassium channel; experiment: Specificity (HitProfiling) screens; format: binding; conditions: at concentrations and/or doses tested
# Aβ 1-40 = biological target: T1, Aβ 1-40 (Homo sapiens, UniProt P05067); experiment: Transmission electron microscopy of Aβ incubated with inhibitor; format: biochemical; conditions: samples from the fluorescence assay upon its termination
# T1 construct: Recombinant β-amyloid (Aβ 1-40, >98% pure) was purchase from rPeptide; purchased rPeptide (Athens Ga., USA)
# [5] = tested on: primary cultures of neuronal cells; experiment: Inhibition of β-amyloid cytotoxicity in primary neuronal cells (MTT); format: cell-based, chicken; conditions: β-amyloid1-42 lesion, 50 μM D-Trp-Aib, evaluated day 10
# hIAPP1-37 = biological target: T2, hIAPP1-37 (Homo sapiens, UniProt P10997); experiment: Thioflavin T fluorescence assay of hIAPP fibrillization (sodium acetate buffer); format: biochemical; conditions: 4 μM hIAPP1-37, 40 μM inhibitor, 10 mM sodium acetate pH 6.5
# T2 construct: purchased CalBiochem (La Jolla Calif., USA)
# T2 sequence (P10997 34-70 limits assumed): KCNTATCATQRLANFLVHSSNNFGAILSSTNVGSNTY
# Description: Thioflavin T fluorescence assay—hIAPP fibrillization was monitored by Thioflavin T dye binding assay. hIAPP1-37 stock solution was diluted to a final concentration of 4 μM in 10 mM sodium acetate buffer (pH 6.5) with or without inhibitors (40 μM), and a final concentration of HFIP of 1% (vol). Immediately after dilution, sample was centrifuged for 20 minutes in 20,000×g at 4° C. and the supernatant fraction was used for fluorescence measurements. In every measurement ThT was added to a 1 ml sample at a final concentration of 3 μM and measurements were effected by using Perkin-Elmer (excitation 450 nm, 2.5 nm slit; emission 480 nm 10 nm slit). Background was subtracted from all samples.
compound,measurement,setting,value
CC(C)(NC(=O)[C@H](N)Cc1c[nH]c2ccccc12)C(=O)O [D-Trp-Aib] (H-[dW]-[Aib]-OH),"plaque region area, relative plaque area and mean plaque size (ThioflavinS labeling)",[1]; cortex and hippocampus,reduced
same,total area of β-sheet cores,[1]; cortex and hippocampus,clear tendency (although not statistically significant)
same,ThioflavinS positive β-sheet cores of neuritic plaques (6E10/ThioflavinS overlay),[1]; cortex,reduction of dense ThioS positive amyloid cores; also recorded: clearly seen
same,mean size of β-sheet cores,[1]; cortex,Reduction of mean plaque size was significant; also recorded: significantly reduced
same,"number of new, small-sized plaques (Campbell-Switzer stain)",[1]; frontal cortex,"fewer new, small-sized plaques; also recorded: markedly smaller number"
same,size and surface area of plaque cores (Campbell-Switzer stain),[1]; frontal cortex,significant reduction in the size and surface area of the plaque cores
same,spatial navigation in MWM (swimming distance and escape latency),[2],markedly improved; also recorded: clear improvement in the performance
same,hAβ1-40 level in SDS fraction of brain homogenates,[3],significantly reduced
same,hAβ1-42 level in SDS fraction of brain homogenates,[3],the same was seen for hAβ1-42 albeit at a lower significance level
same,inhibition of specific binding or activity in profiling screens,[4],None of the results met significance criteria
same,Aβ structures by electron microscopy in the presence of inhibitor,Aβ 1-40,mostly as amorphous aggregates
same,counteracting neurotoxic effect of β-amyloid (MTT viability),[5],highly potent in counteracting the neurotoxic effect of β-amyloid
same,inhibition of IAPP fibrillization (ThT fluorescence at plateau),hIAPP1-37,inhibition potential
